Values from PubChem BioAssay AID1224827 (NIAID, 2016).
Purpose: 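Identify regulators of the macrophage TNF-alpha response to bacterial LPS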 (follow-up of hits). Cells: RAW264.7 G9 mouse macrophage reporter clone. Knock-down reagent: single siRNA against mouse genes, 100 nM siRNA. Time to read-out: siRNA for 2 days, then LPS about 16 h. Challenge: bacterial lipopolysaccharide (LPS), 10 ng/ml, cells fixed after overnight (about 16 h) stimulation. Measurement: 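TNF promoter reporter red fluorescence in nuclei, background subtracted, normalised per plate and to non-targeting control siRNA, as z-scores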. Reading the numbers: TNF reporter z-score, mean: higher = stronger Tnf promoter reporter signal; gene median z, three same-vendor siRNAs: higher = stronger Tnf reporter signal for the gene. Hit rule: 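Active siRNA: replicate-mean z-score of 2 or more, or -2 or less; no calls for control wells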.
This is one part, drawn at random, of about 3,800 reagents tested. About 2,200 of all reagents (57%) count as active. 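Active means a strong reporter change in either direction; calls are per siRNA, not per gene; qiagen siRNAs gave weaker effects.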 A number with no mark means an inactive call. The numbers tell different reagents against one gene apart. Further read-outs or replicates are left out here.

Neil2 (nei like 2 (E. coli)) #1 — TNF reporter z-score, mean: -2.91 (active); gene median z, three same-vendor siRNAs: -4.14
Neil2 (nei like 2 (E. coli)) #2 — TNF reporter z-score, mean: -4.06 (active); gene median z, three same-vendor siRNAs: -4.14
Neil2 (nei like 2 (E. coli)) #3 — TNF reporter z-score, mean: -5.44 (active); gene median z, three same-vendor siRNAs: -4.14
Neil2 (nei like 2 (E. coli)) #4 — TNF reporter z-score, mean: 3.62 (active); gene median z, three same-vendor siRNAs: 0.199
Neil2 (nei like 2 (E. coli)) #5 — TNF reporter z-score, mean: 2.29 (active); gene median z, three same-vendor siRNAs: 0.199
Neil2 (nei like 2 (E. coli)) #6 — TNF reporter z-score, mean: -2.85 (active); gene median z, three same-vendor siRNAs: 0.199
Tnfaip1 (tumor necrosis factor, alpha-induced protein 1 (endothelial)) #1 — TNF reporter z-score, mean: -3.17 (active); gene median z, three same-vendor siRNAs: -3.99
Tnfaip1 (tumor necrosis factor, alpha-induced protein 1 (endothelial)) #2 — TNF reporter z-score, mean: -3.75 (active); gene median z, three same-vendor siRNAs: -3.99
Tnfaip1 (tumor necrosis factor, alpha-induced protein 1 (endothelial)) #3 — TNF reporter z-score, mean: -5.12 (active); gene median z, three same-vendor siRNAs: -3.99
Tnfaip1 (tumor necrosis factor, alpha-induced protein 1 (endothelial)) #4 — TNF reporter z-score, mean: 3.06 (active); gene median z, three same-vendor siRNAs: -0.862
Tnfaip1 (tumor necrosis factor, alpha-induced protein 1 (endothelial)) #5 — TNF reporter z-score, mean: -0.862; gene median z, three same-vendor siRNAs: -0.862
Tnfaip1 (tumor necrosis factor, alpha-induced protein 1 (endothelial)) #6 — TNF reporter z-score, mean: -1.69; gene median z, three same-vendor siRNAs: -0.862
Cox6b2 (cytochrome c oxidase subunit 6B2) #1 — TNF reporter z-score, mean: 5.35 (active); gene median z, three same-vendor siRNAs: -5.01
Cox6b2 (cytochrome c oxidase subunit 6B2) #2 — TNF reporter z-score, mean: -5.23 (active); gene median z, three same-vendor siRNAs: -5.01
Cox6b2 (cytochrome c oxidase subunit 6B2) #3 — TNF reporter z-score, mean: -6.33 (active); gene median z, three same-vendor siRNAs: -5.01
Cox6b2 (cytochrome c oxidase subunit 6B2) #4 — TNF reporter z-score, mean: 0.407; gene median z, three same-vendor siRNAs: -0.928
Cox6b2 (cytochrome c oxidase subunit 6B2) #5 — TNF reporter z-score, mean: 0.413; gene median z, three same-vendor siRNAs: -0.928
Cox6b2 (cytochrome c oxidase subunit 6B2) #6 — TNF reporter z-score, mean: -3.57 (active); gene median z, three same-vendor siRNAs: -0.928
Xpa (xeroderma pigmentosum, complementation group A) #1 — TNF reporter z-score, mean: 2.94 (active); gene median z, three same-vendor siRNAs: 0.645
Xpa (xeroderma pigmentosum, complementation group A) #2 — TNF reporter z-score, mean: -0.144; gene median z, three same-vendor siRNAs: 0.645
Xpa (xeroderma pigmentosum, complementation group A) #3 — TNF reporter z-score, mean: -0.205; gene median z, three same-vendor siRNAs: 0.645
Xpa (xeroderma pigmentosum, complementation group A) #4 — TNF reporter z-score, mean: 3.69 (active); gene median z, three same-vendor siRNAs: 0.641
Xpa (xeroderma pigmentosum, complementation group A) #5 — TNF reporter z-score, mean: 1.71; gene median z, three same-vendor siRNAs: 0.641
Xpa (xeroderma pigmentosum, complementation group A) #6 — TNF reporter z-score, mean: 0.195; gene median z, three same-vendor siRNAs: 0.641
Bmp3 (bone morphogenetic protein 3) #1 — TNF reporter z-score, mean: -3.27 (active); gene median z, three same-vendor siRNAs: -4.3
Bmp3 (bone morphogenetic protein 3) #2 — TNF reporter z-score, mean: -4.3 (active); gene median z, three same-vendor siRNAs: -4.3
Bmp3 (bone morphogenetic protein 3) #3 — TNF reporter z-score, mean: -5.47 (active); gene median z, three same-vendor siRNAs: -4.3
Bmp3 (bone morphogenetic protein 3) #4 — TNF reporter z-score, mean: 3.32 (active); gene median z, three same-vendor siRNAs: -1.23
Bmp3 (bone morphogenetic protein 3) #5 — TNF reporter z-score, mean: -1.23; gene median z, three same-vendor siRNAs: -1.23
Bmp3 (bone morphogenetic protein 3) #6 — TNF reporter z-score, mean: -2.46 (active); gene median z, three same-vendor siRNAs: -1.23
Ctf1 (cardiotrophin 1) #1 — TNF reporter z-score, mean: -1.6; gene median z, three same-vendor siRNAs: -2.82
Ctf1 (cardiotrophin 1) #2 — TNF reporter z-score, mean: -2.82 (active); gene median z, three same-vendor siRNAs: -2.82
Ctf1 (cardiotrophin 1) #3 — TNF reporter z-score, mean: -4.74 (active); gene median z, three same-vendor siRNAs: -2.82
Ctf1 (cardiotrophin 1) #4 — TNF reporter z-score, mean: 4.59 (active); gene median z, three same-vendor siRNAs: -3.24
Ctf1 (cardiotrophin 1) #5 — TNF reporter z-score, mean: -3.72 (active); gene median z, three same-vendor siRNAs: -3.24
Ctf1 (cardiotrophin 1) #6 — TNF reporter z-score, mean: -3.72 (active); gene median z, three same-vendor siRNAs: -3.24
